Data reported in PubChem BioAssay AID328 (DTP/NCI, 2004).
The list does not hold the whole screen: it covers a few groups of compounds. Not every dose and run of a compound is shown. T/C: endpoint of the treated group in % of that of the vehicle group. Some entries give survivors of the animals treated and no T/C: the source holds a T/C of zero for them, seemingly a mark for toxic or unscored doses. Some doses without a T/C left all or most animals alive at the check, yet need not have been tolerated: the source hardly ever lists a survival T/C far under the control, and the zero likely stands for such cases as well. Counts of survivors are from the toxicity check (mostly the fifth day) where no day follows; animals may have died later. Schedules are NCI's codes, read here as Q, the interval in days (D) or hours (H), X, the number of doses. Some complexes appear as separate parts, the way the source draws them; their charges need not add up. For survival time, this PubChem deposit counts one and a half times the control or more as active, and values a quarter to a half above the control carry no call in these data; other NCI protocols may use other cut-offs. Some entries were tested several times; their values stand side by side, smallest first. Some T/C values are marked as having no survivor count here; that says nothing about deaths at the dose. Some T/C values are followed by the survivors on the day toxicity was checked, most often the fifth; where neither a count nor a note follows, no animal had died by that day.

Tested on: BDF1 mice, P388 leukemia ip, median survival T/C
Experiment: NCI In Vivo Anticancer Drug Screen. Data for tumor model P388 Leukemia (intraperitoneal) in B6D2F1 (BDF1) mice
Details: T/C endpoint: median survival time, higher T/C = longer survival
How it was run: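 Steps: implant the tumour, treat one group with compound and another with vehicle, record survival, then divide treated by control.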

[1] = dose: 100.0 mg/kg/injection, schedule: Q04DX003 (ip), vehicle: saline
[2] = dose: 200.0 mg/kg/injection, schedule: Q04DX003 (ip), vehicle: saline
[3] = dose: 400.0 mg/kg/injection, schedule: Q04DX003 (ip), vehicle: saline
[4] = dose: 50.0 mg/kg/injection, schedule: Q01DX009 (ip), vehicle: saline with Tween-80
[5] = dose: 100.0 mg/kg/injection, schedule: Q01DX009 (ip), vehicle: saline with Tween-80
[6] = dose: 200.0 mg/kg/injection, schedule: Q01DX009 (ip), vehicle: saline with Tween-80
[7] = dose: 200.0 mg/kg/injection, schedule: Q04DX003 (ip), vehicle: Klucel (hydroxypropylcellulose) (HPC)

## ClCC[N+]1(CCCl)CCCO1
dose: 2.66 mg/kg/injection, schedule: Q01DX009 (ip), vehicle: saline
  T/C: 98 % of control
dose: 4.0 mg/kg/injection, schedule: Q01DX009 (ip), vehicle: saline
  T/C: 123 % of control
dose: 4.4 mg/kg/injection, schedule: Q04DX003 (ip), vehicle: saline
  T/C: 100 % of control
dose: 6.0 mg/kg/injection, schedule: Q01DX009 (ip), vehicle: saline
  T/C: 164 % of control
dose: 6.25 mg/kg/injection, schedule: Q04DX003 (ip), vehicle: saline
  T/C: 140 % of control
dose: 6.6 mg/kg/injection, schedule: Q04DX003 (ip), vehicle: saline
  T/C: 109 % of control
dose: 9.0 mg/kg/injection, schedule: Q01DX009 (ip), vehicle: saline
  T/C: 171 % of control
dose: 10.0 mg/kg/injection, schedule: Q04DX003 (ip), vehicle: saline
  T/C: 136 % of control
dose: 12.5 mg/kg/injection, schedule: Q04DX003 (ip), vehicle: saline
  T/C: 154 % of control
dose: 15.0 mg/kg/injection, schedule: Q04DX003 (ip), vehicle: saline
  T/C: 150 % of control
dose: 16.5 mg/kg/injection, schedule: Q04DX003 (ip), vehicle: saline
  T/C: 143 % of control
dose: 25.0 mg/kg/injection, schedule: Q04DX003 (ip), vehicle: saline
  T/C: 139 and 204 % of control
dose: 37.5 mg/kg/injection, schedule: Q04DX003 (ip), vehicle: saline
  T/C: 173 % of control

## CCOCCOCCSP(C)(=O)OC(C)C (stereo not drawn)
dose: 3.12 mg/kg/injection, schedule: Q01DX005 (ip), vehicle: saline
  T/C: 97 % of control

## NP1(=O)C=CN(Cc2ccccc2)C(=O)N1 (stereo not drawn)
[1]
  T/C: 100 % of control
[2]
  T/C: 101 % of control
[3]
  T/C: 103 % of control

## O=[N+]([O-])c1cccc2cn([N+](=O)[O-])nc12
dose: 3.12 mg/kg/injection, schedule: Q01DX009 (ip), vehicle: saline with Tween-80
  T/C: 99 % of control [5 of 6 alive]
dose: 6.25 mg/kg/injection, schedule: Q01DX009 (ip), vehicle: saline with Tween-80
  T/C: 101 % of control
dose: 12.5 mg/kg/injection, schedule: Q01DX009 (ip), vehicle: saline with Tween-80
  T/C: 108 % of control
[4]
  survivor count: 0 of 6
[5]
  survivor count: 0 of 6
[6]
  survivor count: 0 of 6

## CN(C)C(=O)Oc1ccc(/C=N/NC(N)=S)nc1
dose: 25.0 mg/kg/injection, schedule: Q01DX009 (ip), vehicle: saline with Tween-80
  T/C: 133 % of control
[4]
  T/C: 142 % of control
[5]
  T/C: 151 % of control
[6]
  survivor count: 4 of 6

## CC1(C)CC[P+](CCC[P+]2(c3ccccc3)CCC(C)(C)c3ccccc32)(c2ccccc2)c2ccccc21.F[P-](F)(F)(F)(F)F (stereo not drawn)
dose: 50.0 mg/kg/injection, schedule: Q01DX005 (ip), vehicle: saline with Tween-80
  survivor count: 0 of 6
dose: 100.0 mg/kg/injection, schedule: Q01DX005 (ip), vehicle: saline with Tween-80
  survivor count: 0 of 6
dose: 200.0 mg/kg/injection, schedule: Q01DX005 (ip), vehicle: saline with Tween-80
  survivor count: 0 of 6

## O=C(O)c1c([N+](=O)[O-])cc([N+](=O)[O-])c(-c2c([N+](=O)[O-])cc([N+](=O)[O-])c(C(=O)O)c2[N+](=O)[O-])c1[N+](=O)[O-].O=C1CC2OCC=C3CN4CCC56c7ccccc7N1C5C2C3CC46
dose: 0.78 mg/kg/injection, schedule: Q01DX009 (ip), vehicle: Klucel (hydroxypropylcellulose) (HPC)
  T/C: 104 % of control [survivor count not shown]
dose: 1.56 mg/kg/injection, schedule: Q01DX009 (ip), vehicle: Klucel (hydroxypropylcellulose) (HPC)
  T/C: 100 % of control [survivor count not shown]
dose: 3.12 mg/kg/injection, schedule: Q01DX009 (ip), vehicle: Klucel (hydroxypropylcellulose) (HPC)
  T/C: 104 % of control [survivor count not shown]
dose: 4.5 mg/kg/injection, schedule: Q04DX003 (ip), vehicle: Klucel (hydroxypropylcellulose) (HPC)
  T/C: 110 % of control [survivor count not shown]
dose: 6.25 mg/kg/injection, schedule: Q01DX009 (ip), vehicle: Klucel (hydroxypropylcellulose) (HPC)
  T/C: 100 % of control [survivor count not shown]
dose: 9.0 mg/kg/injection, schedule: Q04DX003 (ip), vehicle: Klucel (hydroxypropylcellulose) (HPC)
  T/C: 110 % of control [survivor count not shown]

## CCOC(=O)COc1cccc(N(CCCl)CCCl)c1
dose: 8.9 mg/kg/injection, schedule: Q01DX009 (ip), vehicle: other
  T/C: 115 % of control
dose: 13.3 mg/kg/injection, schedule: Q01DX009 (ip), vehicle: other
  T/C: 124 % of control
dose: 19.0 mg/kg/injection, schedule: Q04DX003 (ip), vehicle: Klucel (hydroxypropylcellulose) (HPC)
  T/C: 100 % of control
dose: 20.0 mg/kg/injection, schedule: Q01DX009 (ip), vehicle: other
  T/C: 142 % of control
dose: 21.0 mg/kg/injection, schedule: Q01DX009 (ip), vehicle: Klucel (hydroxypropylcellulose) (HPC)
  T/C: 138 % of control
dose: 29.0 mg/kg/injection, schedule: Q04DX003 (ip), vehicle: Klucel (hydroxypropylcellulose) (HPC)
  T/C: 142 % of control
dose: 30.0 mg/kg/injection, schedule: Q01DX009 (ip), vehicle: Klucel (hydroxypropylcellulose) (HPC)
  T/C: 155 % of control
dose: 30.0 mg/kg/injection, schedule: Q01DX009 (ip), vehicle: other
  T/C: 142 % of control
dose: 37.5 mg/kg/injection, schedule: Q01DX009 (ip), vehicle: other
  T/C: 133 % of control
dose: 45.0 mg/kg/injection, schedule: Q04DX003 (ip), vehicle: Klucel (hydroxypropylcellulose) (HPC)
  T/C: 155 % of control
dose: 50.0 mg/kg/injection, schedule: Q04DX003 (ip), vehicle: saline sonified
  T/C: 125 % of control
dose: 65.0 mg/kg/injection, schedule: Q04DX003 (ip), vehicle: Klucel (hydroxypropylcellulose) (HPC)
  T/C: 170 % of control
dose: 75.0 mg/kg/injection, schedule: Q01DX009 (ip), vehicle: Klucel (hydroxypropylcellulose) (HPC)
  T/C: 145 % of control
dose: 75.0 mg/kg/injection, schedule: Q01DX009 (ip), vehicle: other
  T/C: 145 % of control
dose: 100.0 mg/kg/injection, schedule: Q04DX003 (ip), vehicle: saline sonified
  T/C: 133 % of control
dose: 132.0 mg/kg/injection, schedule: Q04DX003 (ip), vehicle: Klucel (hydroxypropylcellulose) (HPC)
  T/C: 113 and 160 % of control
dose: 150.0 mg/kg/injection, schedule: Q01DX009 (ip), vehicle: Klucel (hydroxypropylcellulose) (HPC)
  T/C: 140 % of control
dose: 150.0 mg/kg/injection, schedule: Q01DX009 (ip), vehicle: other
  T/C: 170 % of control
[7]
  T/C: 122 and 155 % of control
dose: 200.0 mg/kg/injection, schedule: Q04DX003 (ip), vehicle: saline sonified
  T/C: 166 % of control
dose: 300.0 mg/kg/injection, schedule: Q01DX009 (ip), vehicle: Klucel (hydroxypropylcellulose) (HPC)
  T/C: 190 % of control
dose: 300.0 mg/kg/injection, schedule: Q04DX003 (ip), vehicle: Klucel (hydroxypropylcellulose) (HPC)
  T/C: 159 and 195 % of control

## NC1=NCCN1[N+](=O)[O-]
[1]
  T/C: 100 % of control
[2]
  T/C: 105 % of control [5 of 6 alive]
[3]
  survivor count: 2 of 6

## CN(N=O)C(=N)N[N+](=O)[O-]
dose: 8.0 mg/kg/injection, schedule: Q01DX010 (ip), vehicle: saline
  T/C: 180 and 195 % of control
dose: 16.0 mg/kg/injection, schedule: Q01DX010 (ip), vehicle: saline
  T/C: 120 and 122 % of control
dose: 32.0 mg/kg/injection, schedule: Q01DX010 (ip), vehicle: saline
  T/C: 90 and 95 % of control
dose: 64.0 mg/kg/injection, schedule: Q01DX010 (ip), vehicle: saline
  survivor count: 6 of 6

## Cc1cc(C)c2ccccc2n1.O=[N+]([O-])c1cc([N+](=O)[O-])c(O)c([N+](=O)[O-])c1
dose: 50.0 mg/kg/injection, schedule: Q04DX003 (ip), vehicle: Klucel (hydroxypropylcellulose) (HPC)
  T/C: 104 % of control [survivor count not shown]
dose: 100.0 mg/kg/injection, schedule: Q04DX003 (ip), vehicle: Klucel (hydroxypropylcellulose) (HPC)
  T/C: 104 % of control [survivor count not shown]
[7]
  T/C: 100 % of control [survivor count not shown]
